No constants are given. Whether binding was seen depends on the method and setting. Binding seen in cells or lysates may run through a third protein.
Key:
[1] = target: T1, IL-10Rα, full-length subunit of the interleukin 10 receptor (UniProt Q61727); test: FRET or BRET; BRET saturation assay in living HEK293 cells; full-length Rluc donor (plasmid constant, 0.75 ng/mL) with increasing full-length eYFP acceptor plasmid; HBSS, coelenterazine H 5 µM, 37 °C
T1 sequence: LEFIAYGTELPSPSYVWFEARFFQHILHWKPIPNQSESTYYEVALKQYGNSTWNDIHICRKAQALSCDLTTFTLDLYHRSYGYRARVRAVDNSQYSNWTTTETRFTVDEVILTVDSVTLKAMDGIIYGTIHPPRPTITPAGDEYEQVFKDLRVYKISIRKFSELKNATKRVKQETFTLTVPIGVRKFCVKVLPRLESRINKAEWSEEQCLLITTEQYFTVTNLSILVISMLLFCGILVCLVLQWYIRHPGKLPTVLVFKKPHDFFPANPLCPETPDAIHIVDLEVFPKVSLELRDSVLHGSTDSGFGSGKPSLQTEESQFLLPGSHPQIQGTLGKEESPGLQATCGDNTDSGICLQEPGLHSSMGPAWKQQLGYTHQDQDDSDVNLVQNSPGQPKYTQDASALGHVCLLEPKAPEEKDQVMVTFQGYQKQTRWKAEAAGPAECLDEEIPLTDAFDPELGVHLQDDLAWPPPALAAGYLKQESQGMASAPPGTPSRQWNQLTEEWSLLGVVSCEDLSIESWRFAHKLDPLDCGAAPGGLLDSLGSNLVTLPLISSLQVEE

[2] = target: T2, IL-10Rβ, full-length subunit of the interleukin 10 receptor (UniProt Q61190); test: as above
T2 sequence: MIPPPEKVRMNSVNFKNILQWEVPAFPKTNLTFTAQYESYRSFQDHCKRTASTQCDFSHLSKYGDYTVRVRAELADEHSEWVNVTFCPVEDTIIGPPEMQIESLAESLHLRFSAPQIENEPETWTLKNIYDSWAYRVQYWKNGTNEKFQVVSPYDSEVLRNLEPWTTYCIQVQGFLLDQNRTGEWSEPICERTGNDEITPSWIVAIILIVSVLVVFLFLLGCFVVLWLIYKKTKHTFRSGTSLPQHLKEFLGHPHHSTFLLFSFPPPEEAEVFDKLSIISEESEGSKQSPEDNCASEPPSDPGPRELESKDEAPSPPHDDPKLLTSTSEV

binding [1]	binding [2]	Substance
no binding	no binding	GABAB (receptor)
no binding	no binding	PDGFRα (receptor)

— publication PMC10216903, “Implication of the Transmembrane Domain in the Interleukin 10 Receptor Platform Oligomerisation” (Cells, 2023)
